Measured values: paper PMC3582507

Amino acid sequences for entries named in this document (tags omitted).
UniProt P25293: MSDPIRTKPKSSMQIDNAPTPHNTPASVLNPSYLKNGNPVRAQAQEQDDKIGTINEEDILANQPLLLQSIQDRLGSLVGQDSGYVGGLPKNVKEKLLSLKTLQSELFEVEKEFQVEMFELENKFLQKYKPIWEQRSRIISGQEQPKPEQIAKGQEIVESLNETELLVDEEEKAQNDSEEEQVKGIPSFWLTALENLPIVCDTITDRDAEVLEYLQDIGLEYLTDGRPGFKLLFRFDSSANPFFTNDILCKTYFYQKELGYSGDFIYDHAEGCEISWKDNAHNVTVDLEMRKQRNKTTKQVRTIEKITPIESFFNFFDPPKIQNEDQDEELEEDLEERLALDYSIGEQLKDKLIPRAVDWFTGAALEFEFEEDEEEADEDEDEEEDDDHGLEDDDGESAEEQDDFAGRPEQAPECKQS
UniProt P06780: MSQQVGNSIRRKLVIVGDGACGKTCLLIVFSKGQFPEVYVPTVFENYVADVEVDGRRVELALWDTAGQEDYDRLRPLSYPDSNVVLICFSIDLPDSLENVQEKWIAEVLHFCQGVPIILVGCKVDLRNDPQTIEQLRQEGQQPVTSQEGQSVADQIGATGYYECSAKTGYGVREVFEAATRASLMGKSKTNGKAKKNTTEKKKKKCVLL

Biological target: T1, Gps1-TAP (S. cerevisiae) (UniProt Q99299)
T1 sequence: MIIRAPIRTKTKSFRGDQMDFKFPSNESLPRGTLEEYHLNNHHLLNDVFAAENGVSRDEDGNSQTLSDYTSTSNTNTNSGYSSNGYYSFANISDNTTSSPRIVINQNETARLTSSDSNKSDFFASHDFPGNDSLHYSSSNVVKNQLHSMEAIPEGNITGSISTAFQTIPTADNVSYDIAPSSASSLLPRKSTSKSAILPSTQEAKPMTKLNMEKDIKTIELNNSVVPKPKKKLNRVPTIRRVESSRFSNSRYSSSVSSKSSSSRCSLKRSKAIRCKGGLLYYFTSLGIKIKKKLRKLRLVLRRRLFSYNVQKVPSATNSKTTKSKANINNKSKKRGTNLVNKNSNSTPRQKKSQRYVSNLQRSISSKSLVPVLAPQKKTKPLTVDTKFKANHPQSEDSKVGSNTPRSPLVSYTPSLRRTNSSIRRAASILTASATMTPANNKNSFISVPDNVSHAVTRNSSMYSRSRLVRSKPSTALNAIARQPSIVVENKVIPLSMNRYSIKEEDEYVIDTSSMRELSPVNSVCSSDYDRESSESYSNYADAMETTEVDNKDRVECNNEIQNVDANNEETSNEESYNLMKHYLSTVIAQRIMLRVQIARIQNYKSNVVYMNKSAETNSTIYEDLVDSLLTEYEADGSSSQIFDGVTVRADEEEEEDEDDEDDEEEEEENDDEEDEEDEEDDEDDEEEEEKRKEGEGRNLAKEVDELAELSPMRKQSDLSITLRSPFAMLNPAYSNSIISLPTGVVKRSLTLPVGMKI
Assay: affinity purification with mass spectrometry; large-scale TAP purification of Gps1-TAP from 1.6-l yeast culture with Dynabeads coupled to rabbit IgG; interacting proteins identified by mass spectrometry

Row | Substance | binding
1 | Nap1 (from UniProt P25293 1-417) | binds
2 | Rho1 (in purified Gps1-TAP complexes) (from UniProt P06780 1-209) | binds

These are yes or no findings as the source states them, for the method shown. Binding seen in cells or lysates may run through a third protein. A yes stands for co-enrichment or nearness to the bait. Other partners may have been found.
